Laboratory results as given in PubChem BioAssay AID493014 (National Center for Advancing Translational Sciences (NCATS), 2011).
The list shows a part of the results. Further columns of the screen follow, without active or inactive calls. Most of these compounds were active or inconclusive in the main read-out, so they are no random draw. Potencies come from curve fits of mixed quality, noted in brackets.

Assay: qHTS Assay to Find Inhibitors of Chronic Active B-Cell Receptor Signaling
Details: ABC-DLBCL IkBa-CBG/CBR reporter, luminescence ratio (green luciferase fused to IkBa over red control in TMD8 lymphoma cells), 4 h; measured here: CBR red luminescence, cell number
Method in brief: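 Doxycycline induced both beetle luciferases in TMD8 lymphoma cells; IKK-driven degradation limits the IkappaBalpha-fused green signal, while red luminescence normalises for cell number and nonspecific effects. Compounds tested up to 46 uM, 4 hrs.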
In the case of O=C(Nc1cccs1)Nc1cccnc1Cl, the AC50 is reported as 1.26 µM [falling, full curve, poor fit]. For CCNc1nnc(CCn2nc(C)c(Br)c2C)s1, the AC50 was 1.26 µM [rising, full curve, poor fit]. With O=C(c1ccccc1)c1ccccc1NC(=O)C1CCCN1Cc1ccccc1 (centres undefined) the AC50 was 2 µM [rising, full curve]. In the case of CN(C)C(=O)c1ccc2c3c(cccc13)CC2, the AC50 is reported as 35.5 µM [rising, single point]. In the case of COCCCOc1ccnc(CS(=O)c2nc3ccccc3[nH]2)c1C (centres undefined), the AC50 is reported as 35.5 µM [falling, single point]. With Nn1c(SC/C=C/c2ccccc2)nnc1-c1ccccn1 the AC50 was 3.98 µM [rising, full curve, poor fit]. With NC(=O)c1cc[n+](CC(=O)NC(=O)Nc2ccccc2)cc1 the AC50 was 0.731 µM [rising, partial curve, poor fit]. In the case of CCN(CC(=O)NCCC1=CCCCC1)S(=O)(=O)c1ccccc1, the AC50 is reported as 10 µM [rising, partial curve, poor fit]. With COc1ccccc1OC(=O)c1cc(Cl)nc2ccccc12 the AC50 was 0.82 µM [rising, partial curve, poor fit]. In the case of Cc1cccc2nc3c(nc12)CCCC3, the AC50 is reported as 0.398 µM [rising, partial curve, poor fit]. For CCc1ccc(C(=O)Nc2cc3c(cc2Cl)OCCCO3)cc1, the AC50 was 22.4 µM [rising, single point]. In the case of CC(C)Sc1nc(C(F)(F)F)cc(=O)n1-c1ccccc1, the AC50 is reported as 15.8 µM [rising, partial curve, poor fit]. For O=C(NC(c1ccccc1)c1c(O)ccc2ccccc12)c1ccccc1Cl (centres undefined), the AC50 was 35.5 µM [falling, single point]. For Cc1ccc(C)c(C(=O)N2CCC(n3nccc3NC(=O)C3CC3)CC2)c1, the AC50 was 17.8 µM [rising, partial curve, poor fit]. In the case of C=CCNC(=O)c1onc(CSc2ccc(Cl)cc2)c1C(=O)O, the AC50 is reported as 35.5 µM [falling, single point]. For O=C(CNc1cccc([N+](=O)[O-])c1)NC(=O)NC1CCCCC1, the AC50 was 23.1 µM [falling, partial curve, poor fit]. With COc1ccc(NC(=O)N2CCc3ccccc3C2)c(OC)c1 the AC50 was 7.08 µM [falling, partial curve]. In the case of CC(Sc1nnc(-c2cccnc2)n1C)C(=O)N1CCOCC1 (centres undefined), the AC50 is reported as 0.259 µM [rising, full curve, poor fit]. In the case of COc1ccc2c(c1OC)C(=O)N1N=C(c3ccc(F)cc3)CC21 (centres undefined), the AC50 is reported as 11.2 µM [falling, partial curve].
